Measurements from paper PMC11082041.
Results are given in words; binding and its absence hold for the method and conditions named. In cells and extracts the contact can be indirect. Some results given as binding are weak or reduced against the parent protein; the word gives no strength.

Amino acid sequences for entries named in this document (tags omitted).
UniProt P51784: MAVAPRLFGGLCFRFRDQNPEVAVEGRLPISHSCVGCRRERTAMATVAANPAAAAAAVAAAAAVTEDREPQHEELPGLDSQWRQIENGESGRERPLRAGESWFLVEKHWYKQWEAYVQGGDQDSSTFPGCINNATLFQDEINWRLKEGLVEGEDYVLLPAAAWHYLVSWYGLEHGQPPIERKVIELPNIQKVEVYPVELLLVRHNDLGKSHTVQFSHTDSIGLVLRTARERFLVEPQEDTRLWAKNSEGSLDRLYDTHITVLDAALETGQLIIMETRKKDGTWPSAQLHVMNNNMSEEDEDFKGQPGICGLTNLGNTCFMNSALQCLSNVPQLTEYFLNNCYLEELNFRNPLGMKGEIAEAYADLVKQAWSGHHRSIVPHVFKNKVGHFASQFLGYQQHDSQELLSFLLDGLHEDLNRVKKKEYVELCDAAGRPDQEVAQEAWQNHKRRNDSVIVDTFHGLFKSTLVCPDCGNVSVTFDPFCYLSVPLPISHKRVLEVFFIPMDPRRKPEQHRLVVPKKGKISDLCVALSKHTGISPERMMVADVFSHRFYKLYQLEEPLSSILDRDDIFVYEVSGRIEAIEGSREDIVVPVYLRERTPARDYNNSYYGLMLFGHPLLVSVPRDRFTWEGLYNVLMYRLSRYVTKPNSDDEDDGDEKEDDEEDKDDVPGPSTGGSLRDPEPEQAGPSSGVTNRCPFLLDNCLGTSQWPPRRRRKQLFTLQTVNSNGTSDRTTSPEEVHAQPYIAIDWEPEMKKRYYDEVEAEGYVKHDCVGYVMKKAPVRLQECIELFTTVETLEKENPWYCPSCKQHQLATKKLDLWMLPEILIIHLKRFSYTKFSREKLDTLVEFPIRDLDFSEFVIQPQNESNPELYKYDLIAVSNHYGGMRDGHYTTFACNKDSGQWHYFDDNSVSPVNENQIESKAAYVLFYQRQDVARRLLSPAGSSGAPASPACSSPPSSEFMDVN
UniProt Q00444: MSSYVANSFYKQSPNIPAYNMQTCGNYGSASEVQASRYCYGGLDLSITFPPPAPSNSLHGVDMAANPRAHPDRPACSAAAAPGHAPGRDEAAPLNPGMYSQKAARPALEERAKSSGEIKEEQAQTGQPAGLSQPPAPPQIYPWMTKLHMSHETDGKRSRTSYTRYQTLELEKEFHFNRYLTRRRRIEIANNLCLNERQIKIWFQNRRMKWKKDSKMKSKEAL

Legend:
[1] = target: USP11 (human (endogenous in human SSC line)) (UniProt P51784); test: co-IP; human SSC line lysate (RIPA buffer) supernatant incubated with antibody overnight at 4 °C; Protein A + G magnetic beads 1 h at room temperature; eluate analysed by Western blot; done in both directions (IP of USP11 and IP of HOXC5)
[2] = target: HOXC5 (human (endogenous in human SSC line)) (UniProt Q00444); test: as above

Row | binding [1] | binding [2] | Substance
1 | binds |  | HOXC5 (from UniProt Q00444 1-222)
2 |  | binds | USP11 (from UniProt P51784 1-963)
